Results from the supplement of paper PMC10849652.
This is one part of the list. Residues, ends and D or L forms follow the SMILES beside them. *: point of attachment. Cbz = O=C(OCc1ccccc1)*

The chains behind the UniProt entries cited, without tags or fusion partners. Where a name states a change or a piece, a line headed by the entry shows the natural chain unless it says otherwise.
UniProt Q7L3T8: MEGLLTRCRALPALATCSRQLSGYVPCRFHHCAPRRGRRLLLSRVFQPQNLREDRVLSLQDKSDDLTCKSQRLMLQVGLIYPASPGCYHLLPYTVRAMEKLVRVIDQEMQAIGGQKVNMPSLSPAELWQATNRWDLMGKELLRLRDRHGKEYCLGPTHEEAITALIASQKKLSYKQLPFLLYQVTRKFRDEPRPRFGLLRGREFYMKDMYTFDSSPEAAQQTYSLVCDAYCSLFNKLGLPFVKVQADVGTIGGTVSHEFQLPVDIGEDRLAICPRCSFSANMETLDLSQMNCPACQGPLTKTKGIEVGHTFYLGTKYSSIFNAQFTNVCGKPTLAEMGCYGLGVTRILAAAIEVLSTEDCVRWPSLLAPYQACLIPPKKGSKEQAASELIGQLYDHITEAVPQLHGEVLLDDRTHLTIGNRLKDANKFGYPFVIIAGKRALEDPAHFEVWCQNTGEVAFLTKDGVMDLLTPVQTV
UniProt O00541, whole entry, looked up: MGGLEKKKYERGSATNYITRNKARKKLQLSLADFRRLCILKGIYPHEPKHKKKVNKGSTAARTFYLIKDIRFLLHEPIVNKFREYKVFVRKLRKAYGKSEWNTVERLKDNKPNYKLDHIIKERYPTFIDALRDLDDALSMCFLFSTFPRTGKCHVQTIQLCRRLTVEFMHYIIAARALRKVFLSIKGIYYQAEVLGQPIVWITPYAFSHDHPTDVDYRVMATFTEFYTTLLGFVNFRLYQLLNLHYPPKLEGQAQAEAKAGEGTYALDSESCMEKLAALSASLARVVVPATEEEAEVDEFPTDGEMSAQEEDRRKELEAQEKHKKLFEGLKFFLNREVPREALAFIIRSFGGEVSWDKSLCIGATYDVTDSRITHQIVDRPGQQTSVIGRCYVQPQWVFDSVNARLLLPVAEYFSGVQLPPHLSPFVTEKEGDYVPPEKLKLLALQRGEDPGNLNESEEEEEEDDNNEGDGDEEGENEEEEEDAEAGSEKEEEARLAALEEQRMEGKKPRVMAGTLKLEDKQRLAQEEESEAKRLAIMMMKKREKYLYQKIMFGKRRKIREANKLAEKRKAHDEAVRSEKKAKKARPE
UniProt Q9BVG4: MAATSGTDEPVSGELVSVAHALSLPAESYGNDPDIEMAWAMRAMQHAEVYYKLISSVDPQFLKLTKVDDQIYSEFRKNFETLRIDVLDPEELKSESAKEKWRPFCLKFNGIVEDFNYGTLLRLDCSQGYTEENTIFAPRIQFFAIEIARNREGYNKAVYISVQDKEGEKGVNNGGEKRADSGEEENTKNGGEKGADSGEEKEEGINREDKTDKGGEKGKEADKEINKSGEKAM
UniProt Q9UNF0: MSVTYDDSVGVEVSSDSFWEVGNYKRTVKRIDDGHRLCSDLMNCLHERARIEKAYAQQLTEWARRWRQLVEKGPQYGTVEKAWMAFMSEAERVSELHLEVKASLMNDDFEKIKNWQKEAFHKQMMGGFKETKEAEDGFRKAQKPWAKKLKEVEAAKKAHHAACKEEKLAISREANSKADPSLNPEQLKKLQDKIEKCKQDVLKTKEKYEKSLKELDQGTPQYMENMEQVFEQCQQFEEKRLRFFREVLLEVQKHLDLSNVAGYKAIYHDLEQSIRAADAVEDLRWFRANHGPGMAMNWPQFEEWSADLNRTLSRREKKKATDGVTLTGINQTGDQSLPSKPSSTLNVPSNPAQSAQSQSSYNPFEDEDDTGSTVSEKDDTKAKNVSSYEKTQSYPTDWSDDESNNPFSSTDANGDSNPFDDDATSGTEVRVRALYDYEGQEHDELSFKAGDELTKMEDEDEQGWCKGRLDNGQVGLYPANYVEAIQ
UniProt Q9BUH6, whole entry, looked up: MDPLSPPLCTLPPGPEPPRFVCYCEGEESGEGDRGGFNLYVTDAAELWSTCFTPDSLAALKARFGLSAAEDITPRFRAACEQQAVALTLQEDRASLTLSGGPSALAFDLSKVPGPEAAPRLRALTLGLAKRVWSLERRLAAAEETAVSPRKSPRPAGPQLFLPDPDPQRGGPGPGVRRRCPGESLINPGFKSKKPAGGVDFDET
UniProt P50479: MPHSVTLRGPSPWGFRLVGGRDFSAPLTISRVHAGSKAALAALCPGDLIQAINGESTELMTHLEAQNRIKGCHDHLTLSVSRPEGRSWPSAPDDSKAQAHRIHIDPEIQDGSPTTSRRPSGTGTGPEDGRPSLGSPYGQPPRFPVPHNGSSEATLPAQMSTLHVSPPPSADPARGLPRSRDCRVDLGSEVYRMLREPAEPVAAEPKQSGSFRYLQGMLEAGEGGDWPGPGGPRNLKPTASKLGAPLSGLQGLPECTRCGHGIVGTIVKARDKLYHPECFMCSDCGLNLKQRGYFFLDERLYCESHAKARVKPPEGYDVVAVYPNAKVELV
UniProt Q9BYG5: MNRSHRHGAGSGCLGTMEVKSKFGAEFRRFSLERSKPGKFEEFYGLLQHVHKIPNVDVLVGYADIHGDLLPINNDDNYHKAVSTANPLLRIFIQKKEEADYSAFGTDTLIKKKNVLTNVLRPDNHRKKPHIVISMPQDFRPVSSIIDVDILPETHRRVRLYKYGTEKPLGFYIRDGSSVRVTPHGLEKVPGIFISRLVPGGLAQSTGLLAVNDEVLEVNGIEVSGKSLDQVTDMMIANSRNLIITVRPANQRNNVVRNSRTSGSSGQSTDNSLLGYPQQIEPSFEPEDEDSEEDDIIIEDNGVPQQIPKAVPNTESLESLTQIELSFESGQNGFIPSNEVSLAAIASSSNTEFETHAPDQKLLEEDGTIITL
UniProt Q9HBH1: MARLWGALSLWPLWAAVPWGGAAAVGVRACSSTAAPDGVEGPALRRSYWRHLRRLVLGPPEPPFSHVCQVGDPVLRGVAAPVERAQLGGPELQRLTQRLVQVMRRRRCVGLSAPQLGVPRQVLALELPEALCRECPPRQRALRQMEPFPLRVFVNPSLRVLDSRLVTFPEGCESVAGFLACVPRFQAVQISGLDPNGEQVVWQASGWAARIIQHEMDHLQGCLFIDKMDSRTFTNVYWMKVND
UniProt P11177, whole entry, looked up: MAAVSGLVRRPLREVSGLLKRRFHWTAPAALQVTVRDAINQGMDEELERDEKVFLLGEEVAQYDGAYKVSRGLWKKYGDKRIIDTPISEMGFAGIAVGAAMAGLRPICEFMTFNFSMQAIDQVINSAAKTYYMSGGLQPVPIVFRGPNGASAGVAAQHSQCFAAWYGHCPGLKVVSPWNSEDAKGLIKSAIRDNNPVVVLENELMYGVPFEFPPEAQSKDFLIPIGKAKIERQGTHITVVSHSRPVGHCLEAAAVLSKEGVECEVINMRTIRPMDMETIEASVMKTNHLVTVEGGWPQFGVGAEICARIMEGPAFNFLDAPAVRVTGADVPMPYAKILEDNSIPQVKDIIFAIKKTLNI
UniProt P08559, whole entry, looked up: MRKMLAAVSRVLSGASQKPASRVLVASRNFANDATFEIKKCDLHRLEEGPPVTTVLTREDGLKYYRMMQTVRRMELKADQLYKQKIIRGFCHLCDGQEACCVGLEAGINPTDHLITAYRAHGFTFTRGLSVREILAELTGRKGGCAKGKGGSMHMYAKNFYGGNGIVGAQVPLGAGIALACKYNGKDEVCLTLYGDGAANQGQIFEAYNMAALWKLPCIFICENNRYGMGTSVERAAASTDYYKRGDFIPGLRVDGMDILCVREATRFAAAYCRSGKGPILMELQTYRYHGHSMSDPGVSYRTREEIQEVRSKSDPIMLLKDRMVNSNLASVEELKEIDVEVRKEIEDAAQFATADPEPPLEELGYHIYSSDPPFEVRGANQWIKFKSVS
UniProt Q96HC4: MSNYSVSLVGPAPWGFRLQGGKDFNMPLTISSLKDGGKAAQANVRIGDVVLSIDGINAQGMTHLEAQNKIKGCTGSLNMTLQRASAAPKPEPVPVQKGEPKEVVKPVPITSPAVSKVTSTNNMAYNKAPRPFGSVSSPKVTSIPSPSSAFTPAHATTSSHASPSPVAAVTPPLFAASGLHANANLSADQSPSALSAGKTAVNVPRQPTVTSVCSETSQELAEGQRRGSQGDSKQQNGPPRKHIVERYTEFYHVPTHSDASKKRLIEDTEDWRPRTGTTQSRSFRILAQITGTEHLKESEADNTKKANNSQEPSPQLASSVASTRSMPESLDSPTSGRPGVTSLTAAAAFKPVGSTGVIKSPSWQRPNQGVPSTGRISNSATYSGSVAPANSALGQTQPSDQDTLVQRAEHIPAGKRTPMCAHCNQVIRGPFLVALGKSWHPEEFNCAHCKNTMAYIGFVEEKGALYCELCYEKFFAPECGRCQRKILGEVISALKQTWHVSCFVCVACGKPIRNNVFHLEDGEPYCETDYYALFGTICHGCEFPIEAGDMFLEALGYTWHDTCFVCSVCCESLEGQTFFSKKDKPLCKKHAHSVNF
UniProt P05166: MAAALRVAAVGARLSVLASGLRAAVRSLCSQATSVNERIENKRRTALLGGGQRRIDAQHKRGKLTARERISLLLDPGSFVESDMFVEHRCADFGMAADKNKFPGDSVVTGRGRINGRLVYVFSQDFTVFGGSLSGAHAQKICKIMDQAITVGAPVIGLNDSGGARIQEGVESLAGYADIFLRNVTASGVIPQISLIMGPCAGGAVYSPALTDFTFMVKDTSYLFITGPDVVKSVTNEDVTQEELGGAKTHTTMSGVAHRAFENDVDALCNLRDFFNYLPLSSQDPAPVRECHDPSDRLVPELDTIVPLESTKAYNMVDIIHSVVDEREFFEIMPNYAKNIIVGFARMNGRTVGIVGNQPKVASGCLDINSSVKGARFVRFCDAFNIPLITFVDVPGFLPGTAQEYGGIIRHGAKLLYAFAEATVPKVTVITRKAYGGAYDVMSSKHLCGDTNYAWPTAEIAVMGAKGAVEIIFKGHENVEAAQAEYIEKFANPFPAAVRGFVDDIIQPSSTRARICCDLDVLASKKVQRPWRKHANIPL
UniProt P61457: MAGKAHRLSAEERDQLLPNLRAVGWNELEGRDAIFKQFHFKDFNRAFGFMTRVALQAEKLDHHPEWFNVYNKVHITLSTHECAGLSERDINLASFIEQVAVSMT
UniProt Q96GU1: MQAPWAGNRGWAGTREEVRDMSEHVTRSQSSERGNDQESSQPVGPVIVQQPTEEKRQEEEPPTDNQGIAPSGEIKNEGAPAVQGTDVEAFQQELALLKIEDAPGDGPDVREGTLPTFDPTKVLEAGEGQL
UniProt P30101, whole entry, looked up: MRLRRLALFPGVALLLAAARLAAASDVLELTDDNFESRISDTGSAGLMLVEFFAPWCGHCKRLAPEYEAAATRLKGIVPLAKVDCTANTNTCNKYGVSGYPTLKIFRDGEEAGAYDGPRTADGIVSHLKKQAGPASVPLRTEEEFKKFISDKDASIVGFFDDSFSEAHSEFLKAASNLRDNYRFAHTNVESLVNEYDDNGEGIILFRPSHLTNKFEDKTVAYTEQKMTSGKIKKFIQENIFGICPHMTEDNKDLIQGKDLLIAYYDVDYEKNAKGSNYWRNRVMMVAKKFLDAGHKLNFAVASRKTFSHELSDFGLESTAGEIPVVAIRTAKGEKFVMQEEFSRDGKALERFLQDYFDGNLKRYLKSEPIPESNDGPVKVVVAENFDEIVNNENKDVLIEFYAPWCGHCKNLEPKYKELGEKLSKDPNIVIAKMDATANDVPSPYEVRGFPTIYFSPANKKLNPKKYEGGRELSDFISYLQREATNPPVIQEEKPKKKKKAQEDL
UniProt Q9H074: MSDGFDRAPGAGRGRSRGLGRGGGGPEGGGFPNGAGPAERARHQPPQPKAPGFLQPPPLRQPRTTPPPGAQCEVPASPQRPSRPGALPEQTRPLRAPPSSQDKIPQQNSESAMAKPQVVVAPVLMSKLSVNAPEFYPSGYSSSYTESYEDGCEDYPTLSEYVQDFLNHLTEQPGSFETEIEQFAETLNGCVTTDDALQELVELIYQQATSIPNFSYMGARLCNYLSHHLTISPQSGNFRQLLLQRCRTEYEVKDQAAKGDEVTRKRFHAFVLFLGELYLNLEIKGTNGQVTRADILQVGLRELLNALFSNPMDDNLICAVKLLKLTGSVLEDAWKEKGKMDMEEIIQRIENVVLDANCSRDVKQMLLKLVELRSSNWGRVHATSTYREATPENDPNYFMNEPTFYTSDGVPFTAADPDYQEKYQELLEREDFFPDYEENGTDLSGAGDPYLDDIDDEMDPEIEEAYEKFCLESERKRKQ
UniProt Q9H0N5: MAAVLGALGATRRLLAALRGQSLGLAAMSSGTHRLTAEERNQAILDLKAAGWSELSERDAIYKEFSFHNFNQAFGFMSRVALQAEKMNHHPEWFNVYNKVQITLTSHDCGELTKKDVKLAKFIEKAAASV
UniProt Q9BPZ3: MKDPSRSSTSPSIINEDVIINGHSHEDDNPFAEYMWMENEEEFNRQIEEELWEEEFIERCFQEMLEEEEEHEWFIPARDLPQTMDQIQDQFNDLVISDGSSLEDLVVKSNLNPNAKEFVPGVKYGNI
UniProt Q9BUL8: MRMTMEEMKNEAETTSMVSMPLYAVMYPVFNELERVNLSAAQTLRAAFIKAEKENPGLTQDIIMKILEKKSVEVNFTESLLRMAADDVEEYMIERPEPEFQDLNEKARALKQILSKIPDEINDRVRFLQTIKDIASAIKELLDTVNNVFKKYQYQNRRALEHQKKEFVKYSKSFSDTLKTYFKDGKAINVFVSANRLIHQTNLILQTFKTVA

Assays:
Test in all cases: log2 fold change, soluble protein after heating vs DMSO (PISA); higher = thermal stabilisation; K562 cells, 10 uM, 30 min; active = over 0.2 and 3.5 SD of the protein, either way, in both replicates (recomputed)
IRAK-1-4 Inhibitor I = compound: C1COCCN1CCN2C3=CC=CC=C3N=C2NC(=O)C4=CC(=CC=C4)[N+](=O)[O-] [IRAK-1-4 Inhibitor I]
Outline: (§1)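 Soluble protein was defined as the supernatant after 21,000xg for 90 min. It came from K562 cells at 2×10^6 cells/mL given 10 μM compound for 30 min, heated in aliquots for 3 min across 48°C-58°C, pooled, and extracted in PBS with 0.5% NP-40 at 4°C, and was quantified by TMTpro 16plex LC-MS/MS with equalised channel sums. Thermal stability against control samples, from duplicates, is reported as log2 fold change.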

ibrutinib = compound: C=CC(=O)N1CCC[C@@H](n2nc(-c3ccc(Oc4ccccc4)cc3)c3c(N)ncnc32)C1 [ibrutinib]
Outline: as §1

[1] = compound: CC(=O)c1cnc2ccc(-c3cc(Cl)c(O)c(Cl)c3)nc2c1N[C@H]1CC[C@H](CN(C)C)CC1
Outline: as §1

ralimetinib = compound: CC(C)(C)Cn1c(N)nc2ccc(-c3[nH]c(C(C)(C)C)nc3-c3ccc(F)cc3)nc21 [ralimetinib]
Outline: as §1

[2] = compound: CC(C)(O)CC(=O)NCCn1ccc2ncnc(Nc3ccc(Oc4cccc(C(F)(F)F)c4)c(Cl)c3)c21
Outline: as §1

[3] = compound: CC(C)C1=C2N=C(C=C(N2N=C1)NCC3=CC=CC=C3)NCCCCCCN
Outline: as §1

[4] = compound: CC(C)C[C@@H](C=O)NC(=O)[C@H](CC(C)C)NC(=O)[C@H](CC(C)C)NC(=O)OCc1ccccc1
Outline: as §1

pinometostat = compound: CC(C)N(C[C@H]1O[C@@H](n2cnc3c(N)ncnc32)[C@H](O)[C@@H]1O)[C@H]1C[C@@H](CCc2nc3cc(C(C)(C)C)ccc3[nH]2)C1 [pinometostat]
Outline: as §1

[5] = compound: CC1=C(C(CC(=O)N1)C2=CC=C(C=C2)C(F)(F)F)C(=O)NC3=C(C=C4C(=C3)C=NN4)F
Outline: as §1

[6] = compound: CC1=C(C2=C(C=C1)C(=O)C3=CC=CC=C3N2CCCN)C
Outline: as §1

Target	log2 fold change (IRAK-1-4 Inhibitor I)	log2 fold change (ibrutinib)	log2 fold change [1]	log2 fold change (ralimetinib)	log2 fold change [2]	log2 fold change [3]	log2 fold change [4]	log2 fold change (pinometostat)	log2 fold change [5]	log2 fold change [6]
PARS2 (UniProt Q7L3T8)	inactive: -0.089	inactive: 0.059	inactive: 0.038	inactive: 0.06	inactive: 0.031	inactive: -0.04	inactive: -0.005	inactive: -0.011	inactive: -0.008	inactive: 0.111
PBLD (UniProt P30039)	inactive: 0	inactive: -0.013	inactive: 0.005	inactive: 0.038	inactive: -0.033	inactive: -0.021	inactive: -0.027	inactive: 0.18	inactive: -0.012	inactive: 0.062
PALM3 (UniProt A6NDB9)	inactive: 0.034	inactive: 0.004	inactive: -0.016	inactive: 0.081	inactive: 0.032	inactive: 0.19	inactive: -0.051	inactive: -0.04	inactive: -0.008	inactive: 0.033
PDK1 (UniProt Q15118)	inactive: 0.024	inactive: -0.081	inactive: -0.072	inactive: 0.002	inactive: 0.009	inactive: 0.121	inactive: 0.002	inactive: 0.001	inactive: -0.137	inactive: 0.166
PDSS2 (UniProt Q86YH6)	inactive: 0.1	inactive: 0.074	inactive: 0.058	inactive: -0.059	inactive: -0.089	inactive: -0.085	inactive: 0.054	inactive: -0.017	active: -0.438	inactive: -0.022
PES1 (UniProt O00541)	inactive: 0.141	inactive: 0.124	inactive: -0.112	inactive: 0.079	inactive: 0.053	inactive: -0.045	inactive: 0.133	inactive: -0.258	inactive: -0.036	inactive: -0.14
PBDC1 (UniProt Q9BVG4)	inactive: 0.009	inactive: 0.005	inactive: -0.07	inactive: -0.042	inactive: -0.045	inactive: -0.026	inactive: -0.013	inactive: -0.006	inactive: 0.008	inactive: 0.061
PDPR (UniProt Q8NCN5)	inactive: 0.002	inactive: 0.048	inactive: -0.027	inactive: -0.043	inactive: 0.032	inactive: -0.044	inactive: -0.019	inactive: -0.019	inactive: -0.009	inactive: -0.018
PACSIN2 (UniProt Q9UNF0)	inactive: -0.052	inactive: -0.018	inactive: -0.192	inactive: 0.039	inactive: -0.13	inactive: -0.247	inactive: 0.058	inactive: 0.089	inactive: 0.02	inactive: 0.044
PAXX (UniProt Q9BUH6)	inactive: 0.024	inactive: 0.015	inactive: 0.034	inactive: -0.014	inactive: 0.024	inactive: 0.169	inactive: -0.045	inactive: -0.06	inactive: 0.018	inactive: 0
PAGE1 (UniProt O75459)	inactive: 0.064	inactive: 0	inactive: 0.112	inactive: 0.153	inactive: 0.008	inactive: 0.126	inactive: -0.133	inactive: -0.042	inactive: 0.053	inactive: -0.134
PDLIM4 (UniProt P50479)	inactive: 0.015	inactive: -0.012	inactive: -0.033	inactive: 0.015	inactive: -0.032	inactive: 0.015	inactive: 0.009	inactive: -0.004	inactive: 0.045	inactive: 0.018
PARD6B (UniProt Q9BYG5)	inactive: 0.02	inactive: 0.064	inactive: -0.272	inactive: 0.007	inactive: -0.073	inactive: -0.048	inactive: 0.008	inactive: -0.003	inactive: 0.002	inactive: 0.039
PDIA4 (UniProt P13667)	inactive: -0.024	inactive: -0.049	inactive: 0.02	inactive: 0.044	inactive: -0.005	inactive: -0.025	inactive: -0.009	inactive: 0.027	inactive: 0.004	inactive: 0.002
PCM1 isoform 5 (UniProt Q15154)	inactive: -0.032	inactive: -0.088	inactive: -0.157	inactive: 0.112	inactive: 0.065	inactive: -0.091	inactive: 0.033	inactive: 0.22	inactive: -0.035	inactive: -0.076
PDF (UniProt Q9HBH1)	inactive: -0.012	inactive: -0.024	inactive: 0.014	inactive: -0.024	inactive: 0.016	inactive: -0.207	inactive: -0.002	inactive: -0.007	inactive: -0.015	inactive: 0.05
PDHB (UniProt P11177)	inactive: -0.073	inactive: -0.051	inactive: 0.051	inactive: 0.075	inactive: 0.005	inactive: -0.059	inactive: 0.038	inactive: 0.111	inactive: 0.026	inactive: 0.123
PDHA1 isoform 4 (UniProt P08559)	inactive: -0.09	inactive: -0.059	inactive: 0.081	inactive: 0.047	inactive: -0.003	inactive: -0.041	inactive: -0.008	inactive: 0.148	inactive: 0.027	inactive: 0.041
PDLIM5 (UniProt Q96HC4)	inactive: 0.049	inactive: -0.005	inactive: -0.055	inactive: -0.036	inactive: -0.042	inactive: 0.054	inactive: 0.006	inactive: 0.003	inactive: 0.028	inactive: 0.012
PAPSS1 (UniProt O43252)	inactive: 0.081	inactive: -0.022	inactive: 0.009	inactive: -0.058	inactive: -0.03	inactive: 0.021	inactive: 0.082	inactive: -0.012	inactive: 0.004	inactive: -0.006
PCCB isoform 2 (UniProt P05166)	inactive: 0.051	inactive: 0.036	inactive: 0.031	inactive: 0.007	inactive: 0.06	inactive: 0.053	inactive: 0.011	inactive: -0.01	inactive: 0.038	inactive: 0.03
PEBP1 (UniProt P30086)	inactive: 0.046	inactive: 0.002	inactive: 0.028	inactive: -0.016	inactive: 0.015	inactive: 0.042	inactive: -0.02	inactive: -0.042	inactive: 0.015	inactive: -0.062
PCBD1 (UniProt P61457)	inactive: 0.043	inactive: 0.032	inactive: 0.02	inactive: -0.036	inactive: 0.08	inactive: 0.051	inactive: -0.024	inactive: 0.028	inactive: 0.009	inactive: 0.085
PDIA5 (UniProt Q14554)	inactive: -0.038	inactive: -0.003	inactive: 0.059	inactive: 0.045	inactive: 0.039	inactive: -0.017	inactive: 0.004	inactive: 0.043	inactive: 0.008	inactive: 0.001
PAGE5 (UniProt Q96GU1)	inactive: -0.014	inactive: -0.057	inactive: -0.111	inactive: -0.07	inactive: -0.244	inactive: 0.045	inactive: -0.155	inactive: -0.21	inactive: 0.034	inactive: 0.363
PDIA3 (UniProt P30101)	inactive: -0.069	inactive: -0.076	inactive: 0.038	inactive: 0.064	inactive: 0.045	inactive: -0.063	inactive: -0.004	inactive: 0.013	inactive: 0.02	inactive: -0.03
PAIP1 (UniProt Q9H074)	inactive: -0.008	inactive: 0.018	inactive: 0.013	inactive: -0.039	inactive: -0.008	inactive: -0.041	inactive: 0.018	inactive: -0.019	inactive: -0.036	inactive: -0.065
PCBD2 (UniProt Q9H0N5)	inactive: 0.031	inactive: -0.006	inactive: 0.027	inactive: -0.09	inactive: 0	inactive: -0.001	inactive: -0.046	inactive: -0.056	inactive: 0.005	inactive: -0.013
PAIP2 (UniProt Q9BPZ3)	inactive: -0.072	inactive: 0.012	inactive: 0.026	inactive: 0.051	inactive: -0.043	inactive: -0.012	inactive: 0.128	inactive: 0.135	inactive: -0.049	inactive: 0.082
PDCD10 (UniProt Q9BUL8)	inactive: 0.027	inactive: -0.091	inactive: -0.174	inactive: -0.026	inactive: -0.06	inactive: -0.018	inactive: 0.023	inactive: -0.012	inactive: 0.007	inactive: 0.025

Individual results from the entries so far.
PAGE5 (UniProt Q96GU1) | log2 fold change (IRAK-1-4 Inhibitor I): inactive: -0.014
PCM1 isoform 5 (UniProt Q15154) | log2 fold change [1]: inactive: -0.157
